One compound from patent publication US20260266848A1, “COMPOSITIONS AND METHODS FOR DIAGNOSING AND TREATING DYSTONIA” (Duke University, priority 2023, published 2026) can be followed below.

In this data set the test system is DYT1 patient plasma. Nature of the data set: Whole plasma metabolomics (Biocrates MxP Quant 500 Kit), DYT1 vs Healthy Controls. The settings on record: DYT1-Dystonia vs Healthy Control.

Take `N[C@@H](Cc1ccc(O)cc1)C(=O)O` [Tyr_Aminoacids]: the “-LogP” value came to 1.856.
